Results reported in patent US7906541B2, “Process to prepare new substituted 1H-benzo[d]imidazol-2(3H)-ones, new intermediates and their use as BACE 1 inhibitors” (Universite Paul Cezanne-Aix Marseille III, priority 2008, dated 2011).
Some results were stated once for a whole list of compounds, not compound by compound.

Protein sequences, listed by entry. Tags and fused reporters are not part of them. Residues count along the entry.
UniProt P56817, 46-501: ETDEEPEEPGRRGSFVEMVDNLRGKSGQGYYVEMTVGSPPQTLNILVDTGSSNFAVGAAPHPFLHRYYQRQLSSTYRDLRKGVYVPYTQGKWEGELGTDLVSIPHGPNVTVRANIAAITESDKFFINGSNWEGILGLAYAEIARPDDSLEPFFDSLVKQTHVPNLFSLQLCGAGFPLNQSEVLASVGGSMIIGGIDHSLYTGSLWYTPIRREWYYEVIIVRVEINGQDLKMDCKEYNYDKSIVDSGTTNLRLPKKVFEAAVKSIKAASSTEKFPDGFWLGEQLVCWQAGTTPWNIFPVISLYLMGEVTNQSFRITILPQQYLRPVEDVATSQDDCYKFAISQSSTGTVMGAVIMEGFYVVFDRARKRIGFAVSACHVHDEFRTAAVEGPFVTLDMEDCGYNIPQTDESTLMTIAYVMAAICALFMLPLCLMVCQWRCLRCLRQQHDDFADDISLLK

Molecular target: T1, BACE1 (Homo sapiens, UniProt P56817)
T1 construct: purchased PanVera corporation (Madison, Wis., USA), marketed by Sigma-Aldrich
Assay: BACE1 FRET assay Kit, Red (PanVera), in vitro
Type: biochemical
Conditions: each test performed in duplicate

IC50, 50 µM:
CS/C=C(/C)n1c(=O)n(Cc2ccccc2)c2ccccc21 [Example 2, 1-benzyl-3-[(1Z)-1-(methylsulfanyl)prop-1-en-2-yl]-1,3-dihydro-2H-benzimidazol-2-one]
CS/C=C(/C)n1c(=O)n(Cc2cc(C(F)(F)F)cc(C(F)(F)F)c2)c2ccccc21 [Example 6, 1-[3,5-bis(trifluoromethyl)benzyl]-3-[(1Z)-1-(methylsulfanyl)prop-1-en-2-yl]-1,3-dihydro-2H-benzimidazol-2-one]
CS/C=C(/C)n1c(=O)n(Cc2ccc([N+](=O)[O-])cc2)c2ccccc21 [Example 8, 1-[(1Z)-1-(methylsulfanyl)prop-1-en-2-yl]-3-(4-nitrobenzyl)-1,3-dihydro-2H-benzimidazol-2-one]
